For assay [1], the target named is T1, C-reactive protein (CRP), human, purified (Sigma) (human) (UniProt P02741).
T1 sequence: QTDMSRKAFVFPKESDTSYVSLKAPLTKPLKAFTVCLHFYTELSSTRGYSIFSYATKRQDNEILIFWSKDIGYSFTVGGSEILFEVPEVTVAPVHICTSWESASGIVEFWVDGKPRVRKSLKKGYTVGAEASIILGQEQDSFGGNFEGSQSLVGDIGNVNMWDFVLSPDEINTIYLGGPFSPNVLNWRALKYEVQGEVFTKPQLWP
As to the kind of experiment: ELISA; 0.8 ug CRP immobilised on Maxisorp wells; L-rFBG in blocking buffer (1% HSA in TBST, pH 7.4) added, 37 C, 2 h; detected with anti-myc; HSA-coated wells subtracted; both purified.

Assay [2] concerns the target T1, C-reactive protein (CRP), human, purified (Sigma) (human). As to the kind of experiment: ELISA; CRP immobilised, L-rFBG added; acidic pH (5.5, 6.0, 6.5 in MBS), 2 or 2.5 mM calcium; HSA-coated wells subtracted; both purified. A general note: ELISA stands for enzyme-linked immunosorbent assay.

Here are results for one substance from PMC2629585.

No constants are given. Whether binding was seen depends on the method and setting. Binding calls can cover weak binding; strength is not graded here.

Regarding “recombinant FBG domain of L-ficolin (L-rFBG) (human) (domain or fragment)”, the binding result in assay [1] and in assay [2] was “binds” in each case.
